Laboratory results from patent US4891374A, “Imidazo- and triazolothiadiazines” (Hoechst Aktiengesellschaft, priority 1987, dated 1990).

Experiments:
[1] = Acute gastral ulcerogenity; conditions: rat, in vivo, po
Protocol: The investigation was in each case carried out on 10 male Sprague-Dawley rats whose gastric mucous membrane had been sensitized by hunger stress. The body weight of the animals was between 200 and 300 g. While allowing free access to the drinking water, the feed was withdrawn 48 hours before administration of the test preparations until sacrifice of the animals. The rats were sacrificed 24 hours after oral administration of the substance, and the stomachs were removed, cleaned under running water and inspected for mucous membrane lesions. All macroscopically visible lesions were regarded as ulcers. The number of animals having ulcers was determined per dose, and this figure was used to calculate, by the method of Litchfield and Wilcoxon (J. Pharmacol. Exp. Ther. 96 (1949), p. 99), the UD50 values, ie. the doses at which lesions were caused in 50% of the animals.

[2] = in vivo; conditions: mouse, ip
Protocol: The LD50 values were determined by standard methods from the mortality occurring within 7 days in NMRI (Naval Medical Research Institute) mice (6 animals per dose) after a single intraperitoneal (i.p.) administration.

COc1ccc2cc(C(C)C(=O)O)ccc2c1 (centres unmarked) [naproxen, 2-(6-methoxy2-naphthyl)-propionic acid, reference compound]
TD50 at 24 h [1]: 23 mg/kg | LD50 at 168 h [2]: 500 mg/kg
